Data taken from PubChem BioAssay AID912, deposited by NCATS (2007).

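A cell-based FRET test of anthrax lethal toxin entry, tracked through the 460 nm emission signal; the cell line is not named here.
Each compound was tested as a concentration series from about 0.0005 to 40 µM.
The number is the fitted AC50 of the 460 nm signal alone; lower values mean a more potent effect. A falling signal goes with compounds filed as inhibitors or cytotoxic, a rising one with activators or fluorescent compounds (inferred from the filed classes).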

Values are in µM.
Common to all entries: measured here: 460 nm channel.
Part of the compounds only, not a random draw; the main read-out is not listed here.
Potencies fitted to partial, single-point or poorly fitting curves are rough.
The first word of each remark tells which way the curve ran; it can be opposite to the aim of the assay.

| SMILES | AC50 (µM) | curve as filed |
|---|---|---|
| `COc1cc(OC)c(/C=C2/C(=O)Nc3ccccc32)c(OC)c1` | 12.59 | falling, single point |
| `COc1cccc(C2CC(=O)N3CN(c4cccc(Cl)c4C)CSC3=C2C#N)c1OC` (stereo not drawn) | 15.85 | falling, partial curve |
| `CN1[C@@H]2CC[C@H]1CC(O[C@@H](c1ccccc1)c1ccc(Cl)cc1)C2` (stereo partly drawn) | 12.59 | falling, partial curve |
| `COC(=O)COC(=O)c1ccc(Oc2nc(OC)nc(N(C)C)n2)cc1` | 5.012 | rising, single point |
| `O=C(CSc1nc2sc3c(c2c(=O)n1Cc1ccco1)CCC3)N1CCc2ccccc21` | 0.2512 | falling, full curve, poor fit |
| `COC(=O)CSc1nnc(-c2cccs2)n1-c1ccc(Cl)cc1` | 0.005012 | falling, full curve, poor fit |
| `COC(=O)c1ccccc1NC(=O)Cn1cnc2cc(C)c(C)cc21` | 19.95 | rising, single point |
| `C[C@@H]1CN(CCCn2c3ccccc3c3ccccc32)C[C@H](C)N1` | 31.62 | falling, single point |
| `O=C(CSc1nnc(-c2ccccc2)n1Cc1ccccc1)NC1CC1` | 12.59 | rising, single point |
| `CCOC(=O)Cn1c(=O)oc2cc(S(=O)(=O)Nc3c(C)cc(C)cc3C)ccc21` | 25.12 | falling, single point |
| `CCOC(=O)N1CCC(=C2c3ccc(Cl)cc3CCc3cccnc32)CC1` | 12.59 | falling, single point |
| `COc1cc(-c2ccc(=O)[nH]n2)ccc1OC(F)F` | 10 | falling, full curve |
| `COc1ccc(-c2nc3cnc(Oc4cccc(Cl)c4)nc3n(CCC#N)c2=O)cc1` | 12.59 | rising, partial curve |
| `CCN1CCN(C(c2cc3cc4c(cc3[nH]c2=O)OCO4)c2nnnn2C(C)(C)CC)CC1` (stereo not drawn) | 19.95 | rising, single point |
| `O=C(Nc1cccc(NC(=O)c2nccc3ccccc23)c1)c1ccco1` | 0.0631 | falling, full curve, poor fit |
| `CCOC(=O)N1CCN(C(=O)c2ccccc2-c2ccccc2)CC1` | 15.85 | rising, single point |
| `COc1ccc(OC)c(N(CC(=O)N2CCN(c3cc(Cl)ccc3C)CC2)S(C)(=O)=O)c1` | 5.012 | rising, single point |
| `COc1c(F)c(F)c(C(=O)Nc2ccccc2N2CCN(C(=O)C(C)C)CC2)c(F)c1F` | 10 | rising, partial curve |
| `CC(C)Oc1cccc(-c2cc(C(=O)N3CCN(S(C)(=O)=O)CC3)c3ccccc3n2)c1` | 31.62 | falling, single point |
| `COc1ccc2c(c1)Sc1ccccc1N2CCN(C)C` | 12.59 | falling, partial curve |
| `Brc1ccc(CSc2ncn[nH]2)cc1` | 12.59 | falling, partial curve |
| `N[C@@H](Cc1c[nH]c2ccccc12)c1nnc(SCc2ccccc2F)o1` | 0.007943 | rising, full curve, poor fit |
| `COc1ccc2cnn(CCOc3ccccc3)c(=O)c2c1OC` | 3.162 | rising, full curve |
| `COC(=O)C1=C(C)N(c2ccc(Cl)c(Cl)c2)C(=O)C1` | 12.59 | rising, single point |
| `COC(=O)c1nc(N)sc1-c1ccccc1` | 19.95 | rising, single point |
| `COC(=O)C(C)Oc1cc(C)cc2oc(=O)c3c(c12)CCC3` (stereo not drawn) | 10 | rising, partial curve |
| `C/C(=N\O)c1ccc2c3c([nH]c2c1)CCCC3` | 10 | falling, partial curve |
| `COc1ccc2nc3cc(Cl)ccc3c(Nc3ccc(O)c(CN4CCN(C)CC4)c3)c2c1` | 1 | falling, single point |
| `CCOC(=O)N1CC=C2C(C#N)=C(N)C(C#N)(C#N)[C@H](c3ccc(OCC)c(OCC)c3)[C@H]2C1` | 10 | rising, partial curve |
| `COCCCN1C(=O)c2[nH]nc(-c3cc(C)cc(C)c3O)c2C1c1ccc(O)c(OC)c1` (stereo not drawn) | 12.59 | rising, partial curve |
| `O=C(NCC1CCCO1)c1cccc(-n2cnnn2)c1` (stereo not drawn) | 1.995 | falling, partial curve |
| `COc1ccc(N2CCN(c3oc(COc4ccccc4)nc3C#N)CC2)cc1` | 31.62 | falling, single point |
| `Cc1nc2cnc(N3CCN(C)CC3)nc2n(C[C@H]2CCCO2)c1=O` | 0.003981 | falling, full curve, poor fit |
| `Cc1nn2cc(-c3ccc(N)cc3)nc2s1` | 10 | falling, single point |
| `CCOC(=O)c1ccc(N)cc1` | 0.1 | falling, full curve, poor fit |
| `c1ccc2c(-c3nc4ncccc4o3)cccc2c1` | 31.62 | falling, single point |
| `O=C(Oc1ccccc1)N1CCC2(CC1)CCN(C(c1ccccc1)c1ccccc1)CC2` | 3.981 | falling, partial curve |
| `CC1CCCN(S(=O)(=O)c2cc(Cl)ccc2Cl)C1` (stereo not drawn) | 5.012 | rising, partial curve |
| `COc1ccc(CCN2CC3=C(C2=O)C(c2ccccc2)NC(=O)N3C)cc1OC` (stereo not drawn) | 5.012 | rising, single point |

3 of the entries, repeated:

SMILES	AC50 (µM)	curve as filed
CN1[C@@H]2CC[C@H]1CC(O[C@@H](c1ccccc1)c1ccc(Cl)cc1)C2 (stereo partly drawn)	12.59	falling, partial curve
CC(C)Oc1cccc(-c2cc(C(=O)N3CCN(S(C)(=O)=O)CC3)c3ccccc3n2)c1	31.62	falling, single point
CCN1CCN(C(c2cc3cc4c(cc3[nH]c2=O)OCO4)c2nnnn2C(C)(C)CC)CC1 (stereo not drawn)	19.95	rising, single point